Source: PMC4694995
No constants are given. Whether binding was seen depends on the method and setting. In cells and extracts the contact can be indirect. Some results given as binding are weak or reduced against the parent protein; the word gives no strength.

Protein sequences, listed by entry. Tags and fused reporters are not part of them. Residues count along the entry.
UniProt Q61790, residues 24-521: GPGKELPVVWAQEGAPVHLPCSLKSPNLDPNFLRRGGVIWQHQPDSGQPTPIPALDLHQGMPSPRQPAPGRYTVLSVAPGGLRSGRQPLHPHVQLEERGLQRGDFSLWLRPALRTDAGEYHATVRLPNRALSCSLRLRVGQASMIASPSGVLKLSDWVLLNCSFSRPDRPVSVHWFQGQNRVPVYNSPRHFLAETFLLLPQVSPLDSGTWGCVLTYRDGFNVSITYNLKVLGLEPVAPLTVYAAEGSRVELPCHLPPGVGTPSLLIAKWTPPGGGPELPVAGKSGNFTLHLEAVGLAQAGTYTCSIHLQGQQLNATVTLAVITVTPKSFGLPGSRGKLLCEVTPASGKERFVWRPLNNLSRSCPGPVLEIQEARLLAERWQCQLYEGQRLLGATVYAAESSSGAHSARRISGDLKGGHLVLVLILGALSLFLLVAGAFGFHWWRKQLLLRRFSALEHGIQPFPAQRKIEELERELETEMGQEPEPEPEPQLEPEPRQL
UniProt Q02242, residues 25-288: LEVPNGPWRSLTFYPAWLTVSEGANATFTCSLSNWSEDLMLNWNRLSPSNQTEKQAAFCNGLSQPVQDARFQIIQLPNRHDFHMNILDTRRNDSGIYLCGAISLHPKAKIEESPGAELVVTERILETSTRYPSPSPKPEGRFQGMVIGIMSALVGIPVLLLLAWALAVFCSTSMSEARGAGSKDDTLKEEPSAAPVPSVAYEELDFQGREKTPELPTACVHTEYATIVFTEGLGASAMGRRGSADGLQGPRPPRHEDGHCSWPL
UniProt P29351: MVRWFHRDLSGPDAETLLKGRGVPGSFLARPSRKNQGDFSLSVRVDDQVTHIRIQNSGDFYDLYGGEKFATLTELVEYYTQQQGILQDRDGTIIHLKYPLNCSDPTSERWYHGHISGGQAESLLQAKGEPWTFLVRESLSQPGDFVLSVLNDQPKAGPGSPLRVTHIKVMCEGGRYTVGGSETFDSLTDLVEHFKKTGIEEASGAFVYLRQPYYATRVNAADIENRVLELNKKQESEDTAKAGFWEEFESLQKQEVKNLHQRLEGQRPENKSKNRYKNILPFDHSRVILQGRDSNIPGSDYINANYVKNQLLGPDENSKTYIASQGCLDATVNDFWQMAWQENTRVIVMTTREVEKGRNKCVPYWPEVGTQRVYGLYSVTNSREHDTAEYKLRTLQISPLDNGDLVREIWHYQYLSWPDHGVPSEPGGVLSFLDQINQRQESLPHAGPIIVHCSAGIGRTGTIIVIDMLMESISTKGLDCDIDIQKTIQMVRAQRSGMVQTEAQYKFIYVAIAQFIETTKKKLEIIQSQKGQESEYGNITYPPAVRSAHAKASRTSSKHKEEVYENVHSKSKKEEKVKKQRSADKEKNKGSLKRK

Assays:
[1] = molecular target: lymphocyte activation gene-3 (LAG3), endogenous in mouse CD8+ T cells (mouse (endogenous in OT-1 and C57BL/6 CD8+ T cells)) (UniProt Q61790); experiment: co-IP; endogenous proteins; activated mouse CD8+ T cells (OT-1, C57BL/6; also Lag3-/- or Pdcd1-/-) rested in IL2 and restimulated with plate-bound anti-CD3/B7.1 or with IE9mp1 tumour cells for 3 or 5 min, or treated with pervanadate for 5 min; in some samples pre-treatment with blocking anti-PD-L1 and anti-PD1 antibodies; lysis in 20 mM Tris pH 7.4, 100 mM NaCl, 0.1% Nonidet P-40, 0.1% Triton X-100; antibody-conjugated Dynal beads; Western blot
[2] = molecular target: lymphocyte activation gene-3 (LAG3), endogenous in mouse CD8+ T cells (mouse (endogenous in OT-1 and C57BL/6 CD8+ T cells)) (UniProt Q61790); experiment: co-IP; Lag3-/- or Pdcd1-/- mouse CD8+ T cells retrovirally transduced with LAG3 or PD1 constructs (pMIG-II), sorted, rested in IL2, restimulated with IE9mp1 for 5 min or treated with pervanadate for 5 min; antibody-conjugated Dynal beads; Western blot, densitometry normalised to input
[3] = molecular target: programmed cell death 1 (PD1), endogenous in mouse CD8+ T cells (mouse (endogenous in OT-1 and C57BL/6 CD8+ T cells)) (UniProt Q02242); experiment: co-IP; endogenous proteins; activated mouse CD8+ T cells (OT-1, C57BL/6; also Lag3-/- or Pdcd1-/-) rested in IL2 and restimulated with plate-bound anti-CD3/B7.1 or with IE9mp1 tumour cells for 3 or 5 min, or treated with pervanadate for 5 min; in some samples pre-treatment with blocking anti-PD-L1 and anti-PD1 antibodies; lysis in 20 mM Tris pH 7.4, 100 mM NaCl, 0.1% Nonidet P-40, 0.1% Triton X-100; antibody-conjugated Dynal beads; Western blot
[4] = molecular target: wild-type LAG3 expressed from pMIG-LAG3-Wt in Lag3-/- CD8+ T cells (UniProt Q61790); experiment: co-IP; Lag3-/- or Pdcd1-/- mouse CD8+ T cells retrovirally transduced with LAG3 or PD1 constructs (pMIG-II), sorted, rested in IL2, restimulated with IE9mp1 for 5 min or treated with pervanadate for 5 min; antibody-conjugated Dynal beads; Western blot, densitometry normalised to input
[5] = molecular target: programmed cell death 1 (PD1), endogenous in mouse CD8+ T cells (mouse (endogenous in OT-1 and C57BL/6 CD8+ T cells)) (UniProt Q02242); experiment: as above

binding [2]	Substance	binding [1]	also measured
binds	Src-homology-2 domain-containing phosphatase SHP1, endogenous in mouse CD8+ T cells (from UniProt P29351 1-595) (enzyme)	binds	–
–	lymphocyte activation gene-3 (LAG3), endogenous in mouse CD8+ T cells (from UniProt Q61790 24-521) (receptor)	–	binding [3]: binds
–	programmed cell death 1 (PD1), endogenous in mouse CD8+ T cells (from UniProt Q02242 25-288) (receptor)	binds	binding [4]: binds
–	wild-type LAG3 expressed from pMIG-LAG3-Wt in Lag3-/- CD8+ T cells (from UniProt Q61790 24-521) (receptor)	–	binding [5]: binds
binds	wild-type PD1 expressed from pMIG-II in Pdcd1-/- CD8+ T cells (from UniProt Q02242 25-288) (receptor)	–	–
